Measured values reported in PMC4672292.
Results are given in words; binding and its absence hold for the method and conditions named. Some results given as binding are weak or reduced against the parent protein; the word gives no strength.

By UniProt entry, the sequences of proteins in these tests, tags left out.
UniProt P68699: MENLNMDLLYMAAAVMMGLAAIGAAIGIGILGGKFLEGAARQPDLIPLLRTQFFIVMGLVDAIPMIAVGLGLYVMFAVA
UniProt P0A9A6: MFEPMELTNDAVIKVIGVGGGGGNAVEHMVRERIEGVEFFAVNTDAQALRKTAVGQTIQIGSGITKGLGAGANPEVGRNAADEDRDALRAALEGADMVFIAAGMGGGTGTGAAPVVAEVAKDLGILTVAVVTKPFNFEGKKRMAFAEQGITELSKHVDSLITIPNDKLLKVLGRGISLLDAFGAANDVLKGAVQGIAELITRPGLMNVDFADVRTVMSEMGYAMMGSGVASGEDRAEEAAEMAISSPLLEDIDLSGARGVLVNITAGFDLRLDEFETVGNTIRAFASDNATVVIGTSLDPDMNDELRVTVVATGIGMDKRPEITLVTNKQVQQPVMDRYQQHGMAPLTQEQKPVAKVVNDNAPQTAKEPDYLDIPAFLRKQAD
UniProt P0AGA2: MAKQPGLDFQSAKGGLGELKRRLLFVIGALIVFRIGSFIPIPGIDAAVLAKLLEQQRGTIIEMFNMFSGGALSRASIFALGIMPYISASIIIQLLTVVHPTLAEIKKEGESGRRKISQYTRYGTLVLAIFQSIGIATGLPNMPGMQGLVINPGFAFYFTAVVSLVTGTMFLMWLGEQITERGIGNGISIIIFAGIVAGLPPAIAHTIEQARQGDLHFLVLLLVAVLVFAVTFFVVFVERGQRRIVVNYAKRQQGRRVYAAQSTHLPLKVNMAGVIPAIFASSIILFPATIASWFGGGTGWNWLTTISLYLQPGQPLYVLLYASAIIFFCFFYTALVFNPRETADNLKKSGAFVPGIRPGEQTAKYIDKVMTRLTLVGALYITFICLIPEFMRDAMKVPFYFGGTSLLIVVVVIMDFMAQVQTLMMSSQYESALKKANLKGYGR

Legend:
[1] = molecular target: FtsQ (E. coli (endogenous in MC4100)) (UniProt P06136); test: native gel or EMSA; clear native PAGE (CN-PAGE, 4 °C) of mid-exponential E. coli MC4100 whole cells treated with lysozyme and solubilised with 1% DDM (750 mM aminocaproic acid, 50 mM Bis Tris pH 7.0); native gel Western-blotted and probed with antibodies; co-migration at about 1 MDa; also cells with an extra plasmid copy of ftsQ or ftsQ-D237N, without or with 0.2% arabinose
[2] = molecular target: FtsQ (E. coli (endogenous in MC4100)) (UniProt P06136); test: native gel or EMSA; as a3 but gel fragment cut at the same height from the lane of stationary phase cells
[3] = molecular target: FtsQ (E. coli (endogenous in MC4100)) (UniProt P06136); test: native gel or EMSA; 1 MDa band (found by anti-FtsQ) excised from the Coomassie-stained CN-PAGE gel of mid-exponential cells, run on SDS-PAGE, Western-blotted and probed with antibodies against division proteins

binding [1] | binding [3] | Substance | binding [2]
no binding |  | Foc (component of the F1-Fo ATP synthase) (from UniProt P68699 1-79) | 
 | binds | FtsZ (from UniProt P0A9A6 1-383) | no binding (condition: cells in stationary growth phase)
no binding |  | SecY (component of the SecYEG translocon) (from UniProt P0AGA2 1-443) | 
 | binds | ZipA (from UniProt P77173 1-328) | no binding (condition: cells in stationary growth phase)
